Here are results for 1 sequence from PMC5996148.

Amino acid sequences for entries named in this document (tags omitted). A change or cut given only in a name is not applied to a line headed by its entry.
UniProt Q9Y3E1: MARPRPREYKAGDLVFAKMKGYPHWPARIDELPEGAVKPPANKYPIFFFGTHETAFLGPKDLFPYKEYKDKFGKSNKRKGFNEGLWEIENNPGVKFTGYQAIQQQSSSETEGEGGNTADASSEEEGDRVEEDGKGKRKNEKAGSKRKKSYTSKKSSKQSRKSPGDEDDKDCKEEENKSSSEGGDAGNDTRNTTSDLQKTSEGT
UniProt P49773: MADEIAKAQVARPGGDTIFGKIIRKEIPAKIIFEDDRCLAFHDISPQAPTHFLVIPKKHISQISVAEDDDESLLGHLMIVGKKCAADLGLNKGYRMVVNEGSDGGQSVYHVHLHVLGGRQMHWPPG

“And” between values parts separate entries of the source, which are not always exact repeats. Equal entries are not always repeated. Some of the results follow. For some assays here: Construct or isoform of the protein are uncertain.

Common to all, as to assay: protein microarray (ProtoArray v5.0), streptavidin-Alexa Fluor 647
Holding throughout (conditions): 3'-biotin; 20 mM Tris (pH 7.5), 5 mM MgCl2, 100 mM KCl, 0.1% Tween-20, A/T-rich and random oligonucleotide blockers; temperature not stated; high values mean tight binding

The test system of assay [1] is Guanylate cyclase activator 2B (human).
Assay [2] has as its system HAAO (human).
The test system of assay [3] is HAS3 (human).
For assay [4], the system named is HAVCR2 (human).
In assay [5] the test system is HAX1 (human).
In assay [6] the test system is HBG1 (human).
Assay [7] concerns HBG2 (human).
For assay [8], the target named is HBS1L (UniProt Q9Y450).
Assay [9] has as its system HBZ (human).
Assay [10] deals with HCCS (human).
Assay [11] has as its system HCG3 (human).
The target in assay [12] is HDGFRP3 (UniProt Q9Y3E1).
Assay [13] relates to HDHD3 (human).
For assay [14], the system named is HEBP1 (human).
In assay [15] the test system is HEL308 (human).
For assay [16], the system named is HERPUD1 (human).
Assay [17] deals with HFE (human).
For assay [18], the system named is HGS (human).
The target in assay [19] is HINT1 (UniProt P49773).
For assay [20], the target named is HIST2H2AC (UniProt Q16777).

Regarding “GGGGACAGGGGTATGGGGAGGGG [G4-3 biotinylated (CtG)]”, the binding signal in assay [1] was -0.321 z-score; in [2], -0.333 z-score; in [3], -0.313 z-score; in assay [4], -0.336 z-score; in [5] it was -0.325 z-score; in [6] it was -0.321 z-score and -0.342 z-score. Besides, the binding signal in assay [7] was -0.302 z-score; in assay [8], 5.55 z-score; in assay [9], -0.341 z-score; in [10], -0.322 z-score; in assay [11], -0.331 z-score; in assay [12], 5.68 z-score. Besides, the binding signal in assay [13] was -0.321 z-score; in [14] it was -0.306 z-score; in assay [15] it was -0.327 z-score; in assay [16], -0.316 z-score; in assay [17], -0.331 z-score; in assay [18], -0.324 z-score. In addition, the binding signal in assay [19] is -0.329 z-score; in assay [20] it was 3.91 z-score.
